Experimental data published in publication PMC8760648.
No constants are given. Whether binding was seen depends on the method and setting. Binding seen in cells or lysates may run through a third protein. Some binding calls cover weakened binding; strength is not graded here.

Experiments:
[1] = target: Pre-mRNA-processing-splicing factor 8 (PRPF8) (human (endogenous in glioma cells)) (UniProt Q6P2Q9); test: co-IP; IP with either IgG (control), AGO2, SART3 or PRPF8 antibodies from glioma cells, followed by Western blotting; endogenous proteins
[2] = target: T1, SART3, spliceosome-associated factor 3 (human (endogenous in glioma cells)) (UniProt Q15020); test: as above
T1 sequence: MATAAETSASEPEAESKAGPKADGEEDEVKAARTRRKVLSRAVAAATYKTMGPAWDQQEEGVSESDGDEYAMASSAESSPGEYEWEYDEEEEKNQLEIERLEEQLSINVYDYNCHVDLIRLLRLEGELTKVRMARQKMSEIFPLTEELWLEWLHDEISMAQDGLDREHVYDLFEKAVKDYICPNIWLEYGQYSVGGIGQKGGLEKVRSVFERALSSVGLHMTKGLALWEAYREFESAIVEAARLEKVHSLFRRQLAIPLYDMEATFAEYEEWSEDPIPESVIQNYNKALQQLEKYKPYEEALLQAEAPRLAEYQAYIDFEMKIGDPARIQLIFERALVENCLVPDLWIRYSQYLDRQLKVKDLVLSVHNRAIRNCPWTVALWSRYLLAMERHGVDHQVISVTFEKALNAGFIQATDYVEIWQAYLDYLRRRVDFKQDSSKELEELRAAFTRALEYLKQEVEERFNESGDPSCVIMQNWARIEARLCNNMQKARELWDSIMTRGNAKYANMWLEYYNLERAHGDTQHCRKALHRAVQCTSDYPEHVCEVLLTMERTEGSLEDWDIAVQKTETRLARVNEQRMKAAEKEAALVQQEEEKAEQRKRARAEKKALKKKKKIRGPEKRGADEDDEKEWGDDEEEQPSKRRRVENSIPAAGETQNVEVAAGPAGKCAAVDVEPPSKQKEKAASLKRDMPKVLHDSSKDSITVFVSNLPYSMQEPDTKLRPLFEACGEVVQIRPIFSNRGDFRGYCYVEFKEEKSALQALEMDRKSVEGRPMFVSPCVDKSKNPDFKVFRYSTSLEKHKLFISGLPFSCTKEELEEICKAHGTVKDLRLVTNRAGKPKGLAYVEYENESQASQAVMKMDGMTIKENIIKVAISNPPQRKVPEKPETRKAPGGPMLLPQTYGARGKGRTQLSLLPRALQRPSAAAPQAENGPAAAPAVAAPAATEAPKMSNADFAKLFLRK

binding [1]: binds
binding [2]: binds
Substance: Argonaute 2 (Ago2) (from UniProt Q9UKV8 1-859)
